Laboratory results taken from patent publication US20230203127A1.
No constants are given. Whether binding was seen depends on the method and setting. A result given as binding can be weak or reduced; the word gives no strength.

Each binder was assayed against HLA-A*02:01 (human) (assay: UV peptide-exchange ELISA, exchange yield grade).

binding, binds:
KLQEKIQEL [… (SEQ ID NO: 1)], RLLDPKTIFL [… (SEQ ID NO: 12)], QIQGQVSEV [… (SEQ ID NO: 110)], AQLEGKLVSI [… (SEQ ID NO: 111)], ILAQDVAQL [… (SEQ ID NO: 112)], FLFLKEVKV [… (SEQ ID NO: 113)], LLFPSDVQTL [… (SEQ ID NO: 114)], ILHGEVNKV [… (SEQ ID NO: 115)], ALLSSVAEA [… (SEQ ID NO: 116)], TLLEGISRA [… (SEQ ID NO: 117)], SLIEESEEL [… (SEQ ID NO: 119)], ALYVQAPTV [… (SEQ ID NO: 121)], RLHDENILL [… (SEQ ID NO: 13)], SIIDTELKV [… (SEQ ID NO: 122)], QTAPEEAFIKL [… (SEQ ID NO: 123)], ALLLRLFTI [… (SEQ ID NO: 124)], AALEVLAEV [… (SEQ ID NO: 125)], QLREAFEQL [… (SEQ ID NO: 126)], SILTNISEV [… (SEQ ID NO: 128)], KMASKVTQV [… (SEQ ID NO: 129)], QLYGSAITL [… (SEQ ID NO: 130)], SLYPHFTLL [… (SEQ ID NO: 131)], ALLNNVIEV [… (SEQ ID NO: 132)], YTFSGDVQL [… (SEQ ID NO: 14)], FLDGRPLTL [… (SEQ ID NO: 133)], SLYKSFLQL [… (SEQ ID NO: 134)], LLWDAPAKC [… (SEQ ID NO: 136)], KLIYKDLVSV [… (SEQ ID NO: 137)], GIINKLVTV [… (SEQ ID NO: 138)], IILENIQSL [… (SEQ ID NO: 139)], FLDSQITTV [… (SEQ ID NO: 140)], NIDINNNEL [… (SEQ ID NO: 141)], LLDAAHASI [… (SEQ ID NO: 142)], MLWESIMRV [… (SEQ ID NO: 143)], SLADLSLLL [… (SEQ ID NO: 16)], FLISQTPLL [… (SEQ ID NO: 144)], ALEEKLENV [… (SEQ ID NO: 145)], VVAAHLAGA [… (SEQ ID NO: 146)], GLLSALENV [… (SEQ ID NO: 147)], YLILSSHQL [… (SEQ ID NO: 148)], NMADGQLHQV [… (SEQ ID NO: 149)], VLLDMVHSL [… (SEQ ID NO: 150)], DISKRIQSL [… (SEQ ID NO: 151)], AIIKEIQTV [… (SEQ ID NO: 154)], GLLPSAESIKL [… (SEQ ID NO: 17)], TLDSYLKAV [… (SEQ ID NO: 155)], ILQDGQFLV [… (SEQ ID NO: 157)], YLDPLWHQL [… (SEQ ID NO: 158)], QLGPVPVTI [… (SEQ ID NO: 159)], TLQEWLTEV [… (SEQ ID NO: 160)], NLLDENVCL [… (SEQ ID NO: 161)], GLLGNLLTSL [… (SEQ ID NO: 162)], GLEERLYTA [… (SEQ ID NO: 163)], MLIIRVPSV [… (SEQ ID NO: 164)], SLLDYEVSI [… (SEQ ID NO: 165)]
